In the supplement of paper PMC10331698:
± gives the standard deviation of the averaged measurements. Most values lie at the level of the controls, where differences are scatter.

Columns and labels:
Assay in all cases: level (log10 ratio to DMSO vehicle control); higher = higher biomarker level / cell amount than vehicle control
[1] = compound: CC(C)(C)C(=O)CC(=O)C(F)(F)C(F)(F)C(F)(F)F [(Heptafluorobutanoyl)pivaloylmethane]; details: 2200 nM; in DMSO
Description: (§1)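 BioMAP Diversity Plus panel of 12 human primary cell co-culture systems (3C, 4H, LPS, SAg, BT, BF4T, BE3C, CASM3C, HDF3CGF, KF3CT, MyoF, Mphg). Compounds were added 1 h before stimulation and left for 24 h (MyoF 48 h; BT 72 h for soluble read-outs or 6 d for IgG). Biomarkers were read by ELISA, cytotoxicity by SRB, PBMC viability and proliferation by Alamar Blue. Each well value was divided by the mean of 8 DMSO control wells on the same plate and log10 transformed; duplicate blinded samples were tested at 4 concentrations.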

1-(Perfluorohexyl)octane = compound: CCCCCCCCC(F)(F)C(F)(F)C(F)(F)C(F)(F)C(F)(F)C(F)(F)F [1-(Perfluorohexyl)octane]; details: in DMSO
Description: as §1

[2] = compound: CCN(CCO)S(=O)(=O)C(F)(F)C(F)(F)C(F)(F)C(F)(F)C(F)(F)C(F)(F)C(F)(F)C(F)(F)F [N-Ethyl-N-(2-hydroxyethyl)perfluorooctanesulfonamide]; details: in DMSO
Description: as §1

[3] = compound: CN(C(=O)C(F)(F)C(F)(F)C(F)(F)F)[Si](C)(C)C [N-Methyl-N-trimethylsilylheptafluorobutyramide]; details: 2200 nM; in DMSO
Description: as §1

[4] = compound: Cc1ccc(S(=O)(=O)OCC(F)(F)C(F)(F)C(F)(F)C(F)(F)C(F)(F)C(F)F)cc1 [1H,1H,7H-Perfluoroheptyl 4-methylbenzenesulfonate]; details: 2200 nM; in DMSO
Description: as §1

[5] = compound: FC(F)(F)C(F)(F)C(F)(F)C(F)(F)C(F)(F)C(F)(F)CC1CO1 [3-(Perfluorohexyl)-1,2-epoxypropane]; details: 2200 nM; in DMSO
Description: as §1

Heptafluorobutyramide = compound: NC(=O)C(F)(F)C(F)(F)C(F)(F)F [Heptafluorobutyramide]; details: 2200 nM; in DMSO
Description: as §1

[6] = compound: NCC(F)(F)C(F)(F)C(F)(F)C(F)(F)C(F)(F)C(F)(F)C(F)(F)F [1H,1H-Perfluorooctylamine]; details: 2200 nM; in DMSO
Description: as §1

Octafluoroadipic acid = compound: O=C(O)C(F)(F)C(F)(F)C(F)(F)C(F)(F)C(=O)O [Octafluoroadipic acid]; details: 2200 nM; in DMSO
Description: as §1

[7] = compound: O=C(O)C(F)(F)C(F)(F)C(F)(F)C(F)(F)C(F)(F)C(F)(F)C(F)(F)C(F)(F)C(F)(F)C(F)F [11-H-Perfluoroundecanoic acid]; details: 2200 nM; in DMSO
Description: as §1

Perfluoroheptanoic acid = compound: O=C(O)C(F)(F)C(F)(F)C(F)(F)C(F)(F)C(F)(F)C(F)(F)F [Perfluoroheptanoic acid]; details: in DMSO
Description: as §1

Perfluoropentanoic acid = compound: O=C(O)C(F)(F)C(F)(F)C(F)(F)C(F)(F)F [Perfluoropentanoic acid]; details: in DMSO
Description: as §1

[8] = compound: O=C(O)C(F)(F)C(F)(F)C(F)(F)OC(F)(F)F [Perfluoro(4-methoxybutanoic) acid]; details: 2200 nM; in DMSO
Description: as §1

[9] = compound: O=S(=O)(O)CCC(F)(F)C(F)(F)C(F)(F)C(F)(F)C(F)(F)C(F)(F)C(F)(F)C(F)(F)F [8:2 Fluorotelomer sulfonic acid]; details: in DMSO
Description: as §1

1H,1H-Heptafluorobutanol = compound: OCC(F)(F)C(F)(F)C(F)(F)F [1H,1H-Heptafluorobutanol]; details: 2200 nM; in DMSO
Description: as §1

[10] = compound: OCCC(F)(F)C(F)(F)C(F)(F)C(F)(F)C(F)(F)C(F)(F)F [6:2 Fluorotelomer alcohol]; details: 2200 nM; in DMSO
Description: as §1

Row | Test System | level (log10) [1] | level (log10) (1-(Perfluorohexyl)octane; 740 nM) | level (log10) (1-(Perfluorohexyl)octane; 2200 nM) | level (log10) ([2]; 2200 nM) | level (log10) ([2]; 6700 nM) | level (log10) ([2]; 20000 nM) | level (log10) [3] | level (log10) [4] | level (log10) [5] | level (log10) (Heptafluorobutyramide) | level (log10) [6] | level (log10) (Octafluoroadipic acid) | level (log10) [7] | level (log10) (Perfluoroheptanoic acid; 2200 nM) | level (log10) (Perfluoroheptanoic acid; 6700 nM) | level (log10) (Perfluoroheptanoic acid; 20000 nM) | level (log10) (Perfluoroheptanoic acid; 60000 nM) | level (log10) (Perfluoropentanoic acid; 2200 nM) | level (log10) (Perfluoropentanoic acid; 6700 nM) | level (log10) (Perfluoropentanoic acid; 20000 nM) | level (log10) (Perfluoropentanoic acid; 60000 nM) | level (log10) [8] | level (log10) ([9]; 2200 nM) | level (log10) ([9]; 6700 nM) | level (log10) ([9]; 20000 nM) | level (log10) ([9]; 60000 nM) | level (log10) (1H,1H-Heptafluorobutanol) | level (log10) [10]
1 | BT:sIL-17F | -0.12 ± 0.17 | 0.0075 ± 0.015 | 0.0105 ± 0.042 | -0.018 ± 0.092 | -0.0225 ± 0.029 | -0.299 ± 0.037 | -0.03 ± 0.083 | -0.0575 ± 0.0021 | -0.0725 ± 0.086 | 0.0095 ± 0.012 | 0.0125 ± 0.011 | 0.0655 ± 0.15 | -0.042 ± 0.058 | 0.087 ± 0.22 | -0.0725 ± 0.13 | -0.023 ± 0.21 | -0.013 ± 0.045 | 0.02 ± 0.14 | -0.06 ± 0.027 | -0.0325 ± 0.044 | 0.0375 ± 0.19 | 0.0235 ± 0.015 | -0.042 ± 0.024 | -0.0295 ± 0.091 | 0.053 ± 0.0071 | 0.018 | 0.026 ± 0.011 | -0.0955 ± 0.14
2 | BT:sTNF-alpha | 0.0485 ± 0.16 | 0.0075 ± 0.11 | 0.0695 ± 0.0021 | 0.121 ± 0.12 | -0.031 ± 0.082 | -0.312 ± 0.1 | -0.0425 ± 0.037 | 0.0505 ± 0.05 | -0.0065 ± 0.12 | 0.07 ± 0.058 | -0.0425 ± 0.12 | -0.007 ± 0.057 | -0.202 ± 0.09 | -0.0335 ± 0.09 | -0.0045 ± 0.11 | -0.0405 ± 0.05 | -0.064 ± 0.17 | 0.111 ± 0.089 | -0.0575 ± 0.25 | 0.0875 ± 0.012 | 0.105 ± 0.04 | 0.0285 ± 0.039 | 0.005 ± 0.089 | 0.006 ± 0.095 | 0 ± 0.0071 | 0.009 ± 0.034 | 0.0275 ± 0.084 | 0.0085 ± 0.021
3 | CASM3C:CCL2/MCP-1 | 0.0095 ± 0.03 | 0.0015 ± 0.016 | 0.001 ± 0.0042 | 0.0155 ± 0.039 | 0.003 ± 0.017 | -0.017 ± 0.0057 | 0.008 ± 0.021 | 0.004 ± 0.016 | 0.023 ± 0.061 | 0.0195 ± 0.042 | 0.015 ± 0.075 | 0.018 ± 0.024 | 0.012 ± 0.0028 | 0.019 ± 0.033 | -0.0115 ± 0.015 | -0.013 ± 0.011 | 0.032 ± 0.044 | -0.0055 ± 0.029 | -0.0085 ± 0.005 | -0.0125 ± 0.019 | -0.0015 ± 0.015 | 0.0155 ± 0.029 | 0.0175 ± 0.036 | -0.0095 ± 0.00071 | -0.003 ± 0.0057 | 0.016 ± 0.04 | 0.017 ± 0.027 | 0.029 ± 0.058
4 | CASM3C:CD87/uPAR | 0.001 ± 0.0028 | -0.015 ± 0.0099 | -0.0145 ± 0.0092 | 0.0015 ± 0.0064 | -0.0595 ± 0.0092 | -0.09 ± 0.038 | -0.013 ± 0.048 | -0.007 ± 0.021 | -0.003 ± 0.03 | -0.003 ± 0.014 | -0.0205 ± 0.0092 | -0.024 ± 0.0099 | -0.0065 ± 0.06 | -0.001 ± 0.0057 | -0.0005 ± 0.0078 | -0.019 ± 0.031 | -0.0055 ± 0.036 | -0.014 ± 0.02 | -0.027 ± 0.052 | -0.031 ± 0.027 | -0.0175 ± 0.005 | -0.0025 ± 0.015 | 0.006 ± 0.023 | 0.025 ± 0.0099 | 0.022 ± 0.0014 | -0.0055 ± 0.016 | 0.0015 ± 0.0078 | -0.0065 ± 0.019
5 | CASM3C:CD106/VCAM-1 | 0.0025 ± 0.019 | -0.0035 ± 0.011 | -0.01 ± 0.016 | -0.0075 ± 0.019 | -0.085 ± 0.0057 | -0.219 ± 0.021 | -0.018 ± 0.051 | 0.002 | -0.0045 ± 0.05 | -0.025 ± 0.051 | -0.0125 ± 0.06 | -0.008 ± 0.0057 | -0.027 ± 0.016 | 0.012 ± 0.047 | -0.0085 ± 0.0035 | -0.0135 ± 0.021 | 0.012 ± 0.054 | 0.0195 ± 0.0064 | -0.0225 ± 0.0078 | -0.0565 ± 0.029 | -0.009 ± 0.0057 | -0.0135 ± 0.05 | 0.018 | 0.0015 ± 0.029 | -0.0425 ± 0.025 | -0.071 ± 0.033 | 0.034 ± 0.013 | 0.0155 ± 0.053
